Some entries share one result that the patent states for a list of compounds.
Tested on: herpes simplex viruses type 1, strain F (HSV-1)
Experiment: HSV-1 inactivation by buffer solutions on ice for one hour, residual titer by plaque assay on Vero cells
Type: cell-based
Settings: concentration 0.14 M or more, pH 4.0 (Example 4)

`CCCC(=O)N[C@@H](CCCNC(=N)N)C(=O)O` [Nα-butyroyl-L-arginine] was tested, and the “Virus Inactivating Efficiency (LRV)” value was greater than 1.0.

Reference: patent US9462810B2, “Method for inactivating viruses with slightly acidic arginine” (AJINOMOTO CO., INC., priority 2007, dated 2016)
